Reference: the supplement of paper PMC6078165
Values are relative to the signal before dosing, not to a vehicle control; the signal also falls without drug.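 The cancer cells are triple-negative breast cancer lines of basal-like or mesenchymal-like type, grown without fibroblasts. A drop in red signal reflects loss of mitochondrial integrity, a stand-in for apoptotic death.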

How the values were obtained:
MDAMB231 = assay: relative JC-1 red fluorescence (viability) vs pre-drug, monoculture (fraction); higher = more viable cancer cells; conditions: coculture fibroblast: none (monoculture)
Description: (§1)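 JC-1 labelled TNBC cells grown in monoculture (density kept equal with unlabelled cancer cells) in 384-well plates in FluoroBrite medium, treated with one of 42 anticancer drugs at 0.1, 1, 10 or 100 uM. JC-1 red fluorescence (mitochondrial integrity, surrogate of apoptotic death) was read by plate reader every 8 h for 72 h. Values are normalised to each well's pre-drug value, with background from alamethicin. The stock of one drug was tenfold lower, so its dose labels may be too high. Monoculture values are repeated alongside each fibroblast plate and are averaged here.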

MDAMB436 = assay: as above; conditions: coculture fibroblast: none (monoculture)
Description: as §1

CC/C(=C(\c1ccccc1)c1ccc(OCCN(C)C)cc1)c1ccccc1 [Tamoxifen]
relative JC-1 red fluorescence
Conditions	8 h	16 h	24 h	32 h	40 h	48 h	56 h	64 h	72 h
MDAMB231, 0.1 µM	0.73	0.688	0.607	0.592	0.533	0.5199	0.483	0.49	0.487
MDAMB231, 1 µM	0.751	0.779	0.659	0.657	0.608	0.576	0.534	0.535	0.526
MDAMB231, 10 µM	0.773	0.853	0.697	0.847	0.837	0.821	0.813	0.805	0.774
MDAMB436, 0.1 µM	0.8534	0.783	0.791	0.744	0.76	0.752	0.753	0.757	0.768
MDAMB436, 1 µM	0.876	0.7669	0.7817	0.7353	0.708	0.692	0.674	0.662	0.653
MDAMB436, 10 µM	0.8979	0.865	0.8552	0.7825	0.7667	0.7259	0.6777	0.6436	0.613

CC[C@]1(O)C[C@H]2CN(CCc3c([nH]c4ccccc34)[C@@](C(=O)OC)(c3cc4c(cc3OC)N(C=O)[C@H]3[C@@](O)(C(=O)OC)[C@H](OC(C)=O)[C@]5(CC)C=CCN6CC[C@]43[C@@H]65)C2)C1 [Vincristine]
relative JC-1 red fluorescence
Conditions	8 h	16 h	24 h	32 h	40 h	48 h	56 h	64 h	72 h
MDAMB231, 0.1 µM	0.759	0.7357	0.844	0.74	0.719	0.74	0.739	0.792	0.813
MDAMB231, 1 µM	0.788	0.772	0.643	0.6817	0.6453	0.6317	0.6109	0.623	0.6228
MDAMB231, 10 µM	0.842	0.76	0.889	0.7856	0.764	0.7748	0.7725	0.814	0.815
MDAMB231, 100 µM	0.7864	0.855	0.67	0.798	0.776	0.75	0.706	0.689	0.674
MDAMB436, 0.1 µM	0.886	0.884	0.966	0.896	0.847	0.738	0.848	0.748	0.803
MDAMB436, 1 µM	0.86199	0.787	0.757	0.676	0.649	0.625	0.603	0.593	0.585
MDAMB436, 10 µM	0.923	0.819	0.88	0.839	0.861	0.868	0.882	0.883	0.8926
MDAMB436, 100 µM	0.908	0.88959	0.9047	0.8746	0.8812	0.874	0.862	0.845	0.824

CCC1=C[C@@H]2CN(C1)Cc1c([nH]c3ccccc13)[C@@](C(=O)OC)(c1cc3c(cc1OC)N(C)[C@H]1[C@@](O)(C(=O)OC)[C@H](OC(C)=O)[C@]4(CC)C=CCN5CC[C@]31[C@@H]54)C2 [Vinorelbine]
relative JC-1 red fluorescence
Conditions	8 h	16 h	24 h	32 h	40 h	48 h	56 h	64 h	72 h
MDAMB231, 0.1 µM	0.749	0.682	0.693	0.599	0.574	0.566	0.557	0.594	0.592
MDAMB231, 1 µM	0.7737	0.762	0.653	0.624	0.584	0.549	0.51	0.505	0.483
MDAMB231, 10 µM	0.7435	0.768	0.653	0.715	0.6784	0.62	0.5732	0.545	0.518
MDAMB231, 100 µM	0.526	0.357	0.242	0.154	0.107	0.0953	0.0863	0.0809	0.0777
MDAMB436, 0.1 µM	0.899	0.819	0.844	0.792	0.805	0.791	0.802	0.805	0.818
MDAMB436, 1 µM	0.9073	0.854	0.845	0.7954	0.796	0.76	0.742	0.731	0.715
MDAMB436, 10 µM	0.853	0.787	0.795	0.746	0.726	0.697	0.671	0.637	0.621
MDAMB436, 100 µM	0.686	0.498	0.356	0.255	0.216	0.179	0.15	0.125	0.104
